# ± gives the standard deviation of the averaged measurements. This is a selection; strong and weak results do not stand in their true shares. Small differences around the control level are noise.
# Amino acid sequences for entries named in this document (tags omitted). A change or cut given only in a name is not applied to a line headed by its entry.
# UniProt Q12882: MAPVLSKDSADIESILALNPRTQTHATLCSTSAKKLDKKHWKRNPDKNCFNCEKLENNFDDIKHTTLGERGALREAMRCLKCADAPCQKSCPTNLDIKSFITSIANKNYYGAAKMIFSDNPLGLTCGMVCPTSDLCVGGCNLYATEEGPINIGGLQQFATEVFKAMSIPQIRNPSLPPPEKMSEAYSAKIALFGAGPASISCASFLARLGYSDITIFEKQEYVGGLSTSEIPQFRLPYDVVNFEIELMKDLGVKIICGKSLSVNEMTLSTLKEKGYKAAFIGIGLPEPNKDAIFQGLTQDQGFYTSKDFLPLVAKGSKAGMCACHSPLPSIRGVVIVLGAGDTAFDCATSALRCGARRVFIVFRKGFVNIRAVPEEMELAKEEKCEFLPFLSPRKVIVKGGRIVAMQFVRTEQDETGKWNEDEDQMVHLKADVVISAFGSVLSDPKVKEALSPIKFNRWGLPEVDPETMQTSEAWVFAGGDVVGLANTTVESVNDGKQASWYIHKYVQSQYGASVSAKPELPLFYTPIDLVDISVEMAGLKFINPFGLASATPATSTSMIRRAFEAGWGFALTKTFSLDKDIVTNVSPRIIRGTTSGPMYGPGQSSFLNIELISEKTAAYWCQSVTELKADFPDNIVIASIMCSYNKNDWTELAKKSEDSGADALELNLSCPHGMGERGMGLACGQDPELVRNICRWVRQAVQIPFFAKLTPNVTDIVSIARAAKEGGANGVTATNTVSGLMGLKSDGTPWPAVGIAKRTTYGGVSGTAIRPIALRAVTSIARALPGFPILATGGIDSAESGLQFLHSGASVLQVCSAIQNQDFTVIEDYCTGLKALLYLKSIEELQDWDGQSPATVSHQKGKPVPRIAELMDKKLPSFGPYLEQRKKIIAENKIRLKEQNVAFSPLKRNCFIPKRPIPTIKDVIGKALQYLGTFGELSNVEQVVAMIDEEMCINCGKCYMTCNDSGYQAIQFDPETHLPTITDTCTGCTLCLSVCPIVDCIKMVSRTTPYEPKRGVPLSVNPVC
# UniProt Q13571: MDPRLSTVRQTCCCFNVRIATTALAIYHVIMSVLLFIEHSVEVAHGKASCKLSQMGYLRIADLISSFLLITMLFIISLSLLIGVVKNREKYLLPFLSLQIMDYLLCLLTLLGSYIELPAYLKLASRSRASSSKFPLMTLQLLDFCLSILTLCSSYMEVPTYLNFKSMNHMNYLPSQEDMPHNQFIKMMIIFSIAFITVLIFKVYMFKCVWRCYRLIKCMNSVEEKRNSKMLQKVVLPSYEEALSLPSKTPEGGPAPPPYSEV
# UniProt Q13416: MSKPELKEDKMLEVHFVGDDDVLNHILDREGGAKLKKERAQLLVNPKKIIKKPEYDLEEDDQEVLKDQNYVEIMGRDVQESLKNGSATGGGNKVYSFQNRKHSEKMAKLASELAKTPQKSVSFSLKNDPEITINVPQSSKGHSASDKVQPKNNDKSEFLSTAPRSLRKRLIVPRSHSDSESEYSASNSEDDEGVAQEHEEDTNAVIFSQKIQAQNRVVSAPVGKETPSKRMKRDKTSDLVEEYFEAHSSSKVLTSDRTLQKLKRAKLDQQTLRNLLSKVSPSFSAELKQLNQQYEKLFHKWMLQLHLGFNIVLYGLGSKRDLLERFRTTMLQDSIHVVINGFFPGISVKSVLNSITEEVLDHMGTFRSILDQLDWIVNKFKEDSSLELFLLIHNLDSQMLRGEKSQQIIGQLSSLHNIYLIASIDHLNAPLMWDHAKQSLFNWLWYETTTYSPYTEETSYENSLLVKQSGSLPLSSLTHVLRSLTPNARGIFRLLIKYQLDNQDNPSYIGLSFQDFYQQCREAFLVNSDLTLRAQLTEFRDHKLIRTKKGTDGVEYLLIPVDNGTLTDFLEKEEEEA
# UniProt Q12931: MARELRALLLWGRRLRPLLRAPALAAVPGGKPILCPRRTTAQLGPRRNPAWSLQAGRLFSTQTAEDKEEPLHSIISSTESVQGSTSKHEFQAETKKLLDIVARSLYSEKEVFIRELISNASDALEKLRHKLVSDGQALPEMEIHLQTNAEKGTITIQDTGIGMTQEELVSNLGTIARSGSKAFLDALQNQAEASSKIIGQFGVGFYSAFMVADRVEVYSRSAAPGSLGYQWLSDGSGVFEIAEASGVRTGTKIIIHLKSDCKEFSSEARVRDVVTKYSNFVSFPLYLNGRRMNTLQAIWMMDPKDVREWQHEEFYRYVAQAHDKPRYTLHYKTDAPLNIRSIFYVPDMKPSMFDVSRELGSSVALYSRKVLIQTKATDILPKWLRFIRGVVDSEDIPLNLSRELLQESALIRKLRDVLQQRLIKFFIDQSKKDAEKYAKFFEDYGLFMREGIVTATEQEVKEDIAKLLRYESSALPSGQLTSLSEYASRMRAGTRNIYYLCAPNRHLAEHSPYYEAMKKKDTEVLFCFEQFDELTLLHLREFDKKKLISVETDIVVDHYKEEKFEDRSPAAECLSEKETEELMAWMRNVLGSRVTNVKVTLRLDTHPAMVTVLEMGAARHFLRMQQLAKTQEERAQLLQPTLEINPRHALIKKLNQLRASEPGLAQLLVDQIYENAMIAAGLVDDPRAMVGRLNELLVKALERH
# UniProt Q08AM6: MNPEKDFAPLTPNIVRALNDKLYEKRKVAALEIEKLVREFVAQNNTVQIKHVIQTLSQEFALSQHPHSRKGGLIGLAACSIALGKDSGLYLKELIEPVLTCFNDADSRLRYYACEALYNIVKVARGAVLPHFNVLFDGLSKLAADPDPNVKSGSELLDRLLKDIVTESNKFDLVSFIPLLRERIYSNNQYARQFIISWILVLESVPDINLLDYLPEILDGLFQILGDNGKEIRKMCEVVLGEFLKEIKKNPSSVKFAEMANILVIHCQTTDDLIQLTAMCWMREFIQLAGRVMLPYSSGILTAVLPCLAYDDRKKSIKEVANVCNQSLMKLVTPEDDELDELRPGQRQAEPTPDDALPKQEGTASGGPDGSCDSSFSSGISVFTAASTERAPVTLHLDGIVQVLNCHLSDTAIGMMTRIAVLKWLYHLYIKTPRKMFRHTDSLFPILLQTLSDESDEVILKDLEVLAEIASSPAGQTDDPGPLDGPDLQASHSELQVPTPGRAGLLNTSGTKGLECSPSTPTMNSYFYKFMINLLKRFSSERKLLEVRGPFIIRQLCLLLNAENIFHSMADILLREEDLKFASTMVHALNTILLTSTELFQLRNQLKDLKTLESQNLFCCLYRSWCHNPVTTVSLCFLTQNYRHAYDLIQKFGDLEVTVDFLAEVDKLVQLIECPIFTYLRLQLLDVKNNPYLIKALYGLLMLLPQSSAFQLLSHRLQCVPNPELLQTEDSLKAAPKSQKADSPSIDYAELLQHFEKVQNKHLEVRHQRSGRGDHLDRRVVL
# UniProt Q13588: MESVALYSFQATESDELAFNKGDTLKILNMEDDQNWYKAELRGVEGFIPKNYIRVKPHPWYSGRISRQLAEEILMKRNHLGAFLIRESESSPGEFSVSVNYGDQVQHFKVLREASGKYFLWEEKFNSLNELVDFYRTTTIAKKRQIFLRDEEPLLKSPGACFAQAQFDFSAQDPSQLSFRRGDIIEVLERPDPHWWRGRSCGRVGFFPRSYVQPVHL
# UniProt Q14257: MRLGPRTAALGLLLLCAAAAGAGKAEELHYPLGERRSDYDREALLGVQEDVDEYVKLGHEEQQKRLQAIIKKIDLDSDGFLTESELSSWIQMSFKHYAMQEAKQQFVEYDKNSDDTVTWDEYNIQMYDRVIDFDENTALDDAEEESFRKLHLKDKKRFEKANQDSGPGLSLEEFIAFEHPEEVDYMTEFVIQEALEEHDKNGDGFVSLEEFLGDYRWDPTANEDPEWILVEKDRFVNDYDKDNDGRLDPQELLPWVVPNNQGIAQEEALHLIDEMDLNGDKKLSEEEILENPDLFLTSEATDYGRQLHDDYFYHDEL
# UniProt Q13952: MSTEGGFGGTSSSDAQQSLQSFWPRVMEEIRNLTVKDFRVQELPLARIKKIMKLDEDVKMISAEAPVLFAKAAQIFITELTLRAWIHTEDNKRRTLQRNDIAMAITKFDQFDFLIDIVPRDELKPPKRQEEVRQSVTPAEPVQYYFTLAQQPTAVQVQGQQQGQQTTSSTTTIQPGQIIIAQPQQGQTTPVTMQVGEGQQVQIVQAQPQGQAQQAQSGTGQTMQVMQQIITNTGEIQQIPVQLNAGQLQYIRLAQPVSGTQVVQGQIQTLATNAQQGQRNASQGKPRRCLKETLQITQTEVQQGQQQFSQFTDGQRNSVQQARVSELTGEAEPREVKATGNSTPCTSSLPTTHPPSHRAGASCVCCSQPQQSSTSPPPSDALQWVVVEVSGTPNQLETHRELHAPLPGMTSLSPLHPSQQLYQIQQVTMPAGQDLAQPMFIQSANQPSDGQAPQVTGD
# UniProt Q13158: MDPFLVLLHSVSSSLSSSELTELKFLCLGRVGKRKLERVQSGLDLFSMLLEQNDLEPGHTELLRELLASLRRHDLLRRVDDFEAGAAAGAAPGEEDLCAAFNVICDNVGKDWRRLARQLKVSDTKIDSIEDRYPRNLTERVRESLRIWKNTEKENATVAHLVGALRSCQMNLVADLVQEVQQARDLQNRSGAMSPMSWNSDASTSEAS
# UniProt Q13905: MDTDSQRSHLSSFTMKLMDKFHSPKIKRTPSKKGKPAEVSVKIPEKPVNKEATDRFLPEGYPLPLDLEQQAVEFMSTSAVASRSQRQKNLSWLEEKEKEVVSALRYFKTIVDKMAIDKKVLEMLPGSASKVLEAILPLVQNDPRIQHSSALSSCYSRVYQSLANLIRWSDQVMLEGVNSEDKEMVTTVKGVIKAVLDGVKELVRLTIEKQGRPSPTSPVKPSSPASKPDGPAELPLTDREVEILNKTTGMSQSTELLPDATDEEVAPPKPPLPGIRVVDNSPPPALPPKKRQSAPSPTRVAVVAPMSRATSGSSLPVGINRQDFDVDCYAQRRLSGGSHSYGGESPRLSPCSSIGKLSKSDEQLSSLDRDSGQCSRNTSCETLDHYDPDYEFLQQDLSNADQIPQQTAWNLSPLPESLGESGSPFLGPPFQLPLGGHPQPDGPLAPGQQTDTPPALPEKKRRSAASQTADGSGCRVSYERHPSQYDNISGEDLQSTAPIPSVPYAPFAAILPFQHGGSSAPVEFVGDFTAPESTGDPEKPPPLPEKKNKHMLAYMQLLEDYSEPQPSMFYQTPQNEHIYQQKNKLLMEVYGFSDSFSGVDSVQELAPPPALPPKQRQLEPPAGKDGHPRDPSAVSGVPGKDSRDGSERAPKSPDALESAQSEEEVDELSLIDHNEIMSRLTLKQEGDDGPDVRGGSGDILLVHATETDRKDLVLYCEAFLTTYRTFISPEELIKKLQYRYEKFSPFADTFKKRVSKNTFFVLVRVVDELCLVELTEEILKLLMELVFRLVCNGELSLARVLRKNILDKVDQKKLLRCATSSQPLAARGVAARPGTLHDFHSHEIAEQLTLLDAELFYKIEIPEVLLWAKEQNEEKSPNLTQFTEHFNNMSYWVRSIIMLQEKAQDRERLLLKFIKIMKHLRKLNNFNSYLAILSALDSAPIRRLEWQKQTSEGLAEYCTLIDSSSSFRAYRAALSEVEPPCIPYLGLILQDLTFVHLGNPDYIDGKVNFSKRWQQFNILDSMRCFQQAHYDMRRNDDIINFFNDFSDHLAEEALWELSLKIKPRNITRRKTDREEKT
# UniProt Q13541: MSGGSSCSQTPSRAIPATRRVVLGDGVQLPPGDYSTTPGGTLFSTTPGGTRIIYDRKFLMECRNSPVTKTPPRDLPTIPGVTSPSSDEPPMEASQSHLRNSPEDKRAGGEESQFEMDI
# UniProt Q12974: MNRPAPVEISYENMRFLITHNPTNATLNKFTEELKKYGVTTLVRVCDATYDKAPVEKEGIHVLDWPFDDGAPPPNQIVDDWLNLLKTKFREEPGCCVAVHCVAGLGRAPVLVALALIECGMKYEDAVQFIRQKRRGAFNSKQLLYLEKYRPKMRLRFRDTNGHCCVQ
# UniProt Q13310, whole entry: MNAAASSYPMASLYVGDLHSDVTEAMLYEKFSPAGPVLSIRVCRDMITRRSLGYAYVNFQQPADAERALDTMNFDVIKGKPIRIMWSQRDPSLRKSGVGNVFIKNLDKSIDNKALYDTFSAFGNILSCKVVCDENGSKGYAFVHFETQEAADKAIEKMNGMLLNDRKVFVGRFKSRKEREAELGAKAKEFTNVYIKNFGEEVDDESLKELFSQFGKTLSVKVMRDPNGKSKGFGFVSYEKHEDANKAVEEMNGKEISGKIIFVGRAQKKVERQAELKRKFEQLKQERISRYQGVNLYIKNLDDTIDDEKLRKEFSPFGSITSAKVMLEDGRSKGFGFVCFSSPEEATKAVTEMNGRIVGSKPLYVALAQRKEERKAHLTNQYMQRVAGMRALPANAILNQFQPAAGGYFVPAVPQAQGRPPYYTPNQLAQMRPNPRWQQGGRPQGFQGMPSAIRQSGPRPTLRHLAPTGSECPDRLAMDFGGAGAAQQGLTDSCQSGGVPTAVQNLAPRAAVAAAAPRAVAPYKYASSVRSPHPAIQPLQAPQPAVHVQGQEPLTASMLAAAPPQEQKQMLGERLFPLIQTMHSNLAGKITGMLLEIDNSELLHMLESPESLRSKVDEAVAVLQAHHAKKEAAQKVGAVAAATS
# Compound: Nc1ncnc2c1ncn2[C@@H]1O[C@H](COP(=O)(O)OP(=O)(O)NP(=O)(O)O)[C@@H](O)[C@H]1O [adenylyl imidodiphosphate]
# Assay: NP40-soluble protein abundance relative to vehicle (solubility fold change) (ratio); higher = more soluble protein in presence of AMP-PNP
# How it was run: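 In three independent experiments, Jurkat crude lysate made by Dounce homogenisation was treated for 10 min at room temperature and then 3 min at 37 °C with eight concentrations ranging from 0.1 to 10 mM. It was then solubilised with 0.8% NP40 plus benzonase for 60 min at 4 °C and ultracentrifuged. The supernatant was TMT-labelled for LC-MS/MS, and each value is the fold change against the detergent-processed vehicle for the same replicate, using vsn-normalised intensities.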
Target,NP40-soluble protein abundance (concentration: 0.1mM),NP40-soluble protein abundance (concentration: 0.5mM)
UniProt Q14789 and related entries,0.985 ± 0.018,0.987 ± 0.028
UniProt Q14139 and related entries,0.996 ± 0.017,0.979 ± 0.012
UniProt Q13042 and related entries,1.02 ± 0.073,0.982 ± 0.15
FRG1 (UniProt Q14331),1.02 ± 0.019,1.01 ± 0.015
UniProt Q14142 and related entries,0.984 ± 0.017,0.9776 ± 0.0068
DPYD (UniProt Q12882),0.998 ± 0.02,0.9633 ± 0.0012
LAPTM5 (UniProt Q13571),0.96 ± 0.036,0.985 ± 0.026
DNAJC3 (UniProt Q13217),0.974 ± 0.016,0.984 ± 0.016
PRPF4B (UniProt Q13523),1.05 ± 0.058,1.04 ± 0.061
TUBB3 (UniProt Q13509),0.992 ± 0.015,1.01 ± 0.08
UniProt Q14444 and related entries,1.05 ± 0.074,1.06 ± 0.058
UniProt Q13438 and related entries,0.9829 ± 0.0067,0.975 ± 0.016
UniProt Q13416,0.993 ± 0.023,0.985 ± 0.065
UniProt Q12931 and related entries,1 ± 0.021,1.01 ± 0.054
TFDP2 (UniProt Q14188),1 ± 0.017,0.998 ± 0.026
CBX3 (UniProt Q13185),0.978 ± 0.058,0.977 ± 0.011
DAG1 (UniProt Q14118),1.02 ± 0.056,1.05 ± 0.094
UniProt Q15056-2|Q15056,0.978 ± 0.019,0.978 ± 0.058
UniProt Q08AM6 and related entries,1.01 ± 0.047,0.989 ± 0.056
GRAP (UniProt Q13588),1.01 ± 0.034,0.971 ± 0.053

Target,NP40-soluble protein abundance (concentration: 0.1mM),NP40-soluble protein abundance (concentration: 0.5mM)
UniProt Q13085 and related entries,1.03 ± 0.022,0.978 ± 0.095
UniProt Q14257 and related entries,0.999 ± 0.046,1.01 ± 0.023
HDAC1 (UniProt Q13547),0.966 ± 0.052,0.969 ± 0.03
SLC39A6 (UniProt Q13433),1.01 ± 0.042,1.03 ± 0.039
UniProt Q13952 and related entries,1 ± 0.028,0.984 ± 0.03
NCBP1 (UniProt Q09161),1.04 ± 0.028,1.01 ± 0.021
LBR (UniProt Q14739),1.01 ± 0.03,1.01 ± 0.028
UniProt Q15118 and related entries,1.05 ± 0.02,1.04 ± 0.032
UNC119 (UniProt Q13432),0.979 ± 0.016,1.01 ± 0.042
TMEM115 (UniProt Q12893),0.964 ± 0.034,0.968 ± 0.044
FADD (UniProt Q13158),1.06 ± 0.033,1.08 ± 0.027
UniProt Q12873 and related entries,1 ± 0.018,1.03 ± 0.019
BRD3 (UniProt Q15059),0.979 ± 0.04,1.03 ± 0.027
TRIM28 (UniProt Q13263),1.01 ± 0.014,1.01 ± 0.042
UniProt Q12933 and related entries,0.968 ± 0.014,0.961 ± 0.026
CHAF1A (UniProt Q13111),0.998 ± 0.034,1.01 ± 0.077
UniProt Q13905 and related entries,0.956 ± 0.02,0.9891 ± 0.0025
UniProt Q14677 and related entries,0.94 ± 0.021,0.986 ± 0.034
ECH1 (UniProt Q13011),0.9807 ± 0.0093,1 ± 0.036
UniProt Q15018,0.986 ± 0.018,0.995 ± 0.036

# Reformatted: entries from further up.
Target	NP40-soluble protein abundance (concentration: 0.1mM)	NP40-soluble protein abundance (concentration: 0.5mM)
GRAP (UniProt Q13588)	1.01 ± 0.034	0.971 ± 0.053
UniProt Q13085 and related entries	1.03 ± 0.022	0.978 ± 0.095
UniProt Q14257 and related entries	0.999 ± 0.046	1.01 ± 0.023

# (listing goes on)

Target,NP40-soluble protein abundance (concentration: 0.1mM),NP40-soluble protein abundance (concentration: 0.5mM)
UniProt Q13243,1.04 ± 0.02,1.09 ± 0.04
TFDP1 (UniProt Q14186),1.01 ± 0.034,0.986 ± 0.019
UniProt Q13740 and related entries,0.958 ± 0.034,1.01 ± 0.037
UniProt Q14005 and related entries,0.997 ± 0.033,0.973 ± 0.017
UniProt Q13615 and related entries,1.03 ± 0.023,1.01 ± 0.024
EIF2B1 (UniProt Q14232),0.998 ± 0.032,1.04 ± 0.044
EIF4EBP1 (UniProt Q13541),0.9758 ± 0.007,1.009 ± 0.006
UniProt Q12974 and related entries,1 ± 0.028,1.01 ± 0.041
HNRNPA0 (UniProt Q13151),1.01 ± 0.055,1.04 ± 0.059
UniProt Q13310-3|Q13310,0.997 ± 0.037,1.02 ± 0.013
GALNT2 (UniProt Q10471),0.988 ± 0.029,0.985 ± 0.032
UniProt Q14240 and related entries,1.06 ± 0.054,1.077 ± 0.0067
MVP (UniProt Q14764),1.04 ± 0.038,1.02 ± 0.034
PWP1 (UniProt Q13610),1.04 ± 0.016,1.04 ± 0.03
ACAP1 (UniProt Q15027),1.02 ± 0.036,1.01 ± 0.068
SCARB2 (UniProt Q14108),1 ± 0.027,0.996 ± 0.039
SSRP1 (UniProt Q08945),1 ± 0.054,1.07 ± 0.041
UniProt Q14103-3|Q14103-4|D6RF44,0.983 ± 0.04,1.05 ± 0.064
UniProt Q14671 and related entries,0.966 ± 0.019,0.997 ± 0.038
WDR43 (UniProt Q15061),0.9962 ± 0.006,0.999 ± 0.019

# From the supplement of paper PMC6411743
